Entries after “also recorded” stand apart in the source; their conditions may differ. Where two headings read alike, the source gives them in different places. Part of at least one peptide drawing is inferred or uncertain, most often the ends. Where a SMILES comes first, the peptide text is derived from it. Where no end group is shown, it is not given here.
Experiments:
lymphocytes T, monocytes = assay: Proliferation after separate preincubation of purified T lymphocytes and monocytes with peptides or antibodies (synergy of inhibition); type: cell-based, humain; conditions: for synergie d'inhibition de la prolifération: T lymphocytes preincubated with the labelled substance
Experimental: Les monocytes sont obtenus après adhérence des cellules mononucléées (10⁷ /ml) sur boîte de Pétri (Corning) pendant une heure à 37°C. Ces boîtes de Pétri ont été préalablement incubées à 4°C avec du SVF décomplémenté, durant la nuit. Après avoir récupéré les cellules non adhérentes, les cellules adhérentes sont dé-tachées avec un barreau caoutchouté (rubber policeman) et par un pipettage vigoureux. Après deux lavages, elles sont irradiées à 4000 rads (IBL 137, source CS-137, CEA).
Les monocytes restants sont séparés des cellules non adhérentes par un traitement à la L-méthylleucine ester (5.10⁶ /ml, 5 mM final, Sigma) 40 minutes à tempé-rature ambiante (18). La réaction est arrêtée par addition de sérum AB humain (10 % final et lavages à froid).
Les lymphocytes T et B sont séparés par la technique des rosettes E. Les cellules T étant capables de former des rosettes en présence de globules rouges de mouton sensibilisés à la neuraminidase, après une incubation d'une heure à 0°C. Les cellules formant rosettes (E⁺) seront séparées des cellules ne formant pas rosettes (E⁻ ou B) par sédimentation sur gradient Ficoll-Hypaque. Les globules rouges de mouton sont lysés par choc hypotonique.
d'incubation des populations lymphoïdes purifiées avec les peptides ou des anticorps monoclonaux spécifiques des molé-cules T₄ et HLA-DR ont été effectuées.
Il a d'abord été vérifié que les différents traitements utilisés pour séparer les populations lymphoï-des, en particulier la L-leucine méthyl ester, n'affecte pas la fonction des lymphocytes T et leur capacité à proliférer après stimulation par un antigène ou un mitogène. Il a aussi été montré que la population T est suffisamment dépourvue de monocytes pour éviter d'éventuelles interfé-rences dans les incubations. Les résultats résultent du tableau 2.
Les ré-sultats apparaissent dans les tableaux 3 et 4.

lymphocytes T = assay: T-lymphocyte proliferation test induced by influenza virus A/Bangkok, fresh cells (tritiated thymidine incorporation); type: cell-based, humain; conditions: for inhibition de la prolifération spécifique du virus influenza des lymphocytes T: result in words
[1] = tested on: lymphocytes T, lymphocytes B, monocytes; type: cell-based, humain; conditions: for inhibition de la production d'anticorps anti-influenza: result in words, b210: peptides of different length compared, 0,1-10 µg/ml
[2] = tested on: interactions entre les macrophages et les lymphocytes auxiliaires (lymphocytes T4) et entre les lymphocytes T4 et les lymphocytes B; assay: In vitro cell interaction tests in the system of FISHER et al (influenza virus); type: cell-based; conditions: individually or in synergy tests
clone T (SB 12) = type: cell-based
[3] = tested on: lymphocytes T, lymphocytes B; assay: Antibody response after separate preincubation of T and B lymphocytes with peptides or antibodies (synergy of inhibition); type: cell-based, humain; conditions: T lymphocytes incubated with the labelled substance, B lymphocytes incubated with "T₄-12" (1 µg/ml ou 5 µg/ml final)
[4] = monocytes preincubated with "T₄-12", sub-inhibitory concentrations
[5] = very significant and reproducible inhibition, order of magnitude

Compound | synergie d'inhibition de la prolifération (lymphocytes T, monocytes; [4]) | inhibition de la prolifération spécifique du virus influenza des lymphocytes T (lymphocytes T) | inhibition de la production d'anticorps anti-influenza [1] | inhibition de la production d'anticorps anti-influenza ([1]; listed as RFDS) | capacité d'inhiber in vitro les interactions entre les macrophages et les lymphocytes T4 et entre les lymphocytes T4 et les lymphocytes B [2] | synergie d'inhibition de la prolifération (lymphocytes T, monocytes; monocytes preincubated with "T₄-12", sub-inhibitory concentrations, listed as EEYVRFDSDVGE) | synergie d'inhibition de la prolifération (lymphocytes T, monocytes; monocytes with anti-HLA-DR antibody 206) | inhibition de la prolifération lors de l'incubation des monocytes avec le peptide (lymphocytes T, monocytes; monocytes incubated with the peptide, used with OKT₄-D or "DR-12") | concentrations inhibant la prolifération spécifique du virus influenza des lymphocytes T (lymphocytes T; [5]) [micro-molaires] | concentrations inhibant la production d'anticorps contre ce virus [1, 5] [micro-molaires] | inhibition de l'effet helper pour la production d'anticorps anti-influenza du clone SB 12 (clone T (SB 12)) | synergie d'inhibition de la réponse anticorps [3] | synergie d'inhibition de la réponse anticorps ([3]; listed as EEYVRFDSDVGE) | inhibition de la prolifération spécifique du virus influenza des lymphocytes T (lymphocytes T; listed as KLNDRADSRRSL)
N=C(N)NCCC[C@H](N)C(=O)N[C@@H](Cc1ccccc1)C(=O)N[C@@H](CC(=O)O)C(=O)N[C@@H](CO)C(=O)O [DR-4, RFDS] (H-RFDS-OH) | aucune action inhibitrice | faible | faible, voire aucune inhibition | faible |  |  |  |  |  |  |  |  |  | 
EEYDRFDSDVGE [DR-12, EEYDRFDSDVGE] | synergies d'inhibitions |  | la plus élevée |  | capables | inhibition importante | synergie d'inhibition | inhibition | ~10 | ~10 | inhibé; also recorded: inhibition est observée | synergie d'inhibition | inhibition importante | 
KLNDRADSRRSL [T₄-12, KLNDRADSRRSL] |  | modéré et variable | modéré et variable |  | capables |  |  |  |  |  |  |  |  | modérée mais significative
DRADSKL [XX, DRADSKL] |  |  |  |  | capables |  |  |  |  |  |  |  |  | 
